The list does not hold the whole screen: it is rich in T/C values a quarter to a half above the control, in often repeated tests (any T/C) and in doses without a T/C. Further doses and runs are listed elsewhere. T/C gives the treated animals as a percentage of the vehicle group. Some doses have a count of surviving animals in place of a T/C: the source files T/C as zero there, which appears to mark a toxic dose or a test without result, not a measured value. Some doses without a T/C left all or most animals alive at the check, yet need not have been tolerated: survival well below the control is almost never listed, so the zero probably covers shortened survival too. Survivors were counted at the toxicity check, usually on the fifth day, unless a day is given; later deaths do not show. Schedules are NCI's codes, taken here to give the interval after Q, in days (D) or hours (H), and the number of doses after X. Some schedule codes hold Z or #, which are not explained here. Where survival is the endpoint, the PubChem record calls one and a half times the control and up active, and a quarter to a half above the control has no call in these data; cut-offs in other NCI protocols can differ. Some T/C values are followed by the survivors on the day toxicity was checked, most often the fifth; where none is given, no animal had died by that day. Some entries were tested several times; the results are listed from low to high.
Test system: L1210 leukemia ip in BDF1 mice, survival T/C
Assay: NCI In Vivo Anticancer Drug Screen. Data for tumor model L1210 Leukemia (intraperitoneal) in B6D2F1 (BDF1) mice
Conditions: higher T/C = longer survival
[1] = T/C endpoint: mean survival time, dose: 400.0 mg/kg/injection, schedule: Q04DX002 (ip), vehicle: saline with Tween-80

Q: Which results are given for CCN(CC)c1ccc(N=Cc2ccccc2S(=O)(=O)O)cc1?
A: survivor count (T/C endpoint: mean survival time, dose: 100.0 mg/kg/injection, schedule: Q04DX003 (ip), vehicle: saline sonified): 4 of 6; survivor count (T/C endpoint: mean survival time, dose: 200.0 mg/kg/injection, schedule: Q04DX003 (ip), vehicle: saline sonified): 1 of 6; survivor count (T/C endpoint: mean survival time, dose: 400.0 mg/kg/injection, schedule: Q04DX003 (ip), vehicle: saline sonified): 0 of 6

Q: Which survivor count (T/C endpoint: mean survival time, dose: 400.0 mg/kg/injection, schedule: Q04DX003 (ip), vehicle: Klucel (hydroxypropylcellulose) (HPC)) does the source give for O=C(O)c1cc2ccccc2s1 here?
A: Its survivor count is 0 of 6.

Q: For COc1cccc(C(C)(C)COS(=O)(=O)c2ccc(C)cc2)c1, which survivor count (T/C endpoint: mean survival time, dose: 200.0 mg/kg/injection, schedule: Q01DX009 (ip), vehicle: saline with Tween-80) is on record?
A: The survivor count was 3 of 3.

Q: What does the source list for CC1CCC(N=S=O)CC1 (stereo not given) (tested in a mixture with another compound)?
A: survivor count (T/C endpoint: mean survival time, dose: 200.0 mg/kg/injection, schedule: Q04DX003 (ip), vehicle: saline with Tween-80): 3 of 6; survivor count [1]: 1 of 3; survivor count (T/C endpoint: mean survival time, dose: 400.0 mg/kg/injection, schedule: Q04DX003 (ip), vehicle: saline with Tween-80): 0 of 6

Q: Which survivor count (T/C endpoint: mean survival time, dose: 300.0 mg/kg/injection, schedule: Q01DX001 (ip), vehicle: saline) does the source give for C=C(C)C1(CCCC)C(=O)NC(=S)NC1=O here?
A: Its survivor count is 1 of 6.

Q: For Cc1ccc(C(/C=C/c2ccccc2)=N\N=C(N)N)cc1, which survivor count (T/C endpoint: mean survival time, dose: 120.0 mg/kg/injection, schedule: Q01DX Z (ip), vehicle: methylcellulose (MC)) is on record?
A: Its survivor count is 3 of 6.

Q: And the survivor count (T/C endpoint: mean survival time, dose: 360.0 mg/kg/injection, schedule: Q01DX Z (oral), vehicle: methylcellulose (MC))?
A: Its survivor count is 4 of 6.

Q: For CCCOC(C)CC(c1ccccc1)(c1ccccc1)c1ccccc1 (stereo not given), which survivor count (T/C endpoint: mean survival time, dose: 50.0 mg/kg/injection, schedule: Q01DX009 (ip), vehicle: saline with Tween-80) is on record?
A: Its survivor count is 3 of 3.

Q: What about the survivor count (T/C endpoint: mean survival time, dose: 100.0 mg/kg/injection, schedule: Q01DX009 (ip), vehicle: saline with Tween-80) of the same compound?
A: Its survivor count is 3 of 3.

Q: With CCCCS.[Hg] as the compound, how does the survivor count (T/C endpoint: mean survival time, dose: 25.0 mg/kg/injection, schedule: Q04DX002 (ip), vehicle: saline with Tween-80) read?
A: The survivor count was 3 of 3.

Q: What about the survivor count (T/C endpoint: mean survival time, dose: 50.0 mg/kg/injection, schedule: Q04DX002 (ip), vehicle: saline with Tween-80) of the same compound?
A: The survivor count was 0 of 3.

Q: What about the survivor count (T/C endpoint: mean survival time, dose: 100.0 mg/kg/injection, schedule: Q04DX002 (ip), vehicle: saline with Tween-80) of the same compound?
A: Its survivor count is 0 of 3.

Q: What about the survivor count (T/C endpoint: mean survival time, dose: 200.0 mg/kg/injection, schedule: Q04DX002 (ip), vehicle: saline with Tween-80) of the same compound?
A: Its survivor count is 0 of 3.

Q: What about the survivor count [1] of the same compound?
A: Its survivor count is 0 of 3.

Q: For N#C/C(=C\c1ccco1)C1CCCCC1, which survivor count (T/C endpoint: mean survival time, dose: 400.0 mg/kg/injection, schedule: Q04DX002 (ip), vehicle: other) is on record?
A: The survivor count was 1 of 3.

Q: With CC(Cl)(Cl)[N+](=O)[O-] as the compound, how does the survivor count (T/C endpoint: mean survival time, dose: 400.0 mg/kg/injection, schedule: Q01DX009 (ip), vehicle: saline with Tween-80) read?
A: The survivor count was 2 of 6.

Q: With CN(N=O)C(=O)Nc1ccccc1 as the compound, how does the T/C (T/C endpoint: mean survival time, dose: 300.0 mg/kg/injection, schedule: Q01DX001 (ip), vehicle: carboxymethylcellulose (CMC)) read?
A: Its T/C is 128 % of control.

Q: And the survivor count (T/C endpoint: mean survival time, dose: 1200.0 mg/kg/injection, schedule: Q01DX001 (ip), vehicle: carboxymethylcellulose (CMC))?
A: The survivor count was 0 of 10.

Q: What about the survivor count (T/C endpoint: mean survival time, dose: 2400.0 mg/kg/injection, schedule: Q01DX001 (ip), vehicle: carboxymethylcellulose (CMC)) of the same compound?
A: The survivor count was 0 of 10.

Q: N/C(=N/N=C/c1ccncc1)N/N=C\c1ccncc1 was tested. Which survivor count (T/C endpoint: mean survival time, dose: 15.0 mg/kg/injection, schedule: Q01DX Z (ip), vehicle: carboxymethylcellulose (CMC)) did it give?
A: The survivor count was 6 of 6.

Q: And the survivor count (T/C endpoint: mean survival time, dose: 960.0 mg/kg/injection, schedule: Q01DX Z (oral), vehicle: carboxymethylcellulose (CMC))?
A: Its survivor count is 0 of 6.

Q: With O=C(CC(C(=O)c1ccccc1)c1ccccc1)c1ccccc1 (stereo not given) as the compound, how does the survivor count (T/C endpoint: mean survival time, dose: 200.0 mg/kg/injection, schedule: Q01DX009 (ip), vehicle: Klucel (hydroxypropylcellulose) (HPC)) read?
A: The survivor count was 0 of 6.

Q: Which survivor count (T/C endpoint: mean survival time, dose: 400.0 mg/kg/injection, schedule: Q01DX001 (ip), vehicle: carboxymethylcellulose (CMC)) does the source give for COCc1nc2c(=S)nc[nH]c2n1N here?
A: Its survivor count is 3 of 6.

Q: How did the T/C (T/C endpoint: mean survival time, dose: 11.0 mg/kg/injection, schedule: Q01DX009 (ip), vehicle: other) turn out when COC(=O)C(Cc1ccc(N(CCCl)CCCl)cc1)N=NNc1nc[nH]c1C(N)=O (stereo not given) was run?
A: The T/C was 127 % of control.

Q: What about the T/C (T/C endpoint: mean survival time, dose: 17.0 mg/kg/injection, schedule: Q01DX009 (ip), vehicle: other) of the same compound?
A: The T/C was 125 % of control.

Q: What about the T/C (T/C endpoint: mean survival time, dose: 25.0 mg/kg/injection, schedule: Q01DX009 (ip), vehicle: other) of the same compound?
A: The T/C was 148 % of control.

Q: What about the survivor count (T/C endpoint: mean survival time, dose: 38.0 mg/kg/injection, schedule: Q03HX024 (ip), vehicle: other) of the same compound?
A: The survivor count was 4 of 6.

Q: And the survivor count (T/C endpoint: mean survival time, dose: 56.0 mg/kg/injection, schedule: Q03HX024 (ip), vehicle: other)?
A: The survivor count was 4 of 6.

Q: And the T/C (T/C endpoint: mean survival time, dose: 88.0 mg/kg/injection, schedule: Q01DX001 (ip), vehicle: carboxymethylcellulose (CMC))?
A: Its T/C is 132 % of control.

Q: And the T/C (T/C endpoint: mean survival time, dose: 133.0 mg/kg/injection, schedule: Q01DX001 (ip), vehicle: carboxymethylcellulose (CMC))?
A: The T/C was 145 % of control.

Q: And the T/C (T/C endpoint: mean survival time, dose: 250.0 mg/kg/injection, schedule: Q01DX001 (ip), vehicle: carboxymethylcellulose (CMC))?
A: The T/C was 130 % of control.

Q: And the survivor count (T/C endpoint: mean survival time, dose: 300.0 mg/kg/injection, schedule: Q04DX003 (ip), vehicle: other)?
A: Its survivor count is 6 of 6.

Q: And the survivor count (T/C endpoint: mean survival time, dose: 450.0 mg/kg/injection, schedule: Q04DX003 (ip), vehicle: other)?
A: Its survivor count is 4 of 6.

Q: And the T/C (T/C endpoint: median survival time, dose: 12.5 mg/kg/injection, schedule: Q01DX009 (ip), vehicle: steroid suspending solution)?
A: Its T/C is 133 % of control.

Q: And the T/C (T/C endpoint: median survival time, dose: 25.0 mg/kg/injection, schedule: Q01DX009 (ip), vehicle: steroid suspending solution, evaluated on day 30)?
A: The T/C was 133 % of control.

Q: What about the T/C (T/C endpoint: median survival time, dose: 25.0 mg/kg/injection, schedule: Q01DX009 (ip), vehicle: steroid suspending solution, evaluated on day 50) of the same compound?
A: The T/C was 144 % of control.

Q: What about the T/C (T/C endpoint: median survival time, dose: 50.0 mg/kg/injection, schedule: Q01DX009 (ip), vehicle: steroid suspending solution) of the same compound?
A: The T/C was 138 % of control.

Q: And the survivor count (T/C endpoint: median survival time, dose: 100.0 mg/kg/injection, schedule: Q01DX009 (ip), vehicle: steroid suspending solution)?
A: The survivor count was 8 of 8.

Q: And the survivor count (T/C endpoint: median survival time, dose: 200.0 mg/kg/injection, schedule: Q01DX009 (ip), vehicle: steroid suspending solution)?
A: Its survivor count is 3 of 8.

Q: What does the source list for C[C@@H]1CN(C(=O)CCOS(C)(=O)=O)[C@@H](C)CN1C(=O)CCOS(C)(=O)=O?
A: T/C (T/C endpoint: mean survival time, dose: 8.4 mg/kg/injection, schedule: Q01DX Z (ip), vehicle: carboxymethylcellulose (CMC)): 132 % of control; T/C (T/C endpoint: mean survival time, dose: 12.6 mg/kg/injection, schedule: Q01DX Z (ip), vehicle: carboxymethylcellulose (CMC)): 125 % of control; T/C (T/C endpoint: mean survival time, dose: 19.0 mg/kg/injection, schedule: Q01DX Z (ip), vehicle: carboxymethylcellulose (CMC)): 135 % of control; T/C (T/C endpoint: mean survival time, dose: 29.0 mg/kg/injection, schedule: Q01DX Z (ip), vehicle: carboxymethylcellulose (CMC)): 127 and 144 % of control; T/C (T/C endpoint: mean survival time, dose: 29.5 mg/kg/injection, schedule: Q01DX Z (ip), vehicle: carboxymethylcellulose (CMC)): 125 % of control; T/C (T/C endpoint: mean survival time, dose: 60.3 mg/kg/injection, schedule: Q01DX Z (ip), vehicle: carboxymethylcellulose (CMC)): 132 and 147 % of control; T/C (T/C endpoint: mean survival time, dose: 88.0 mg/kg/injection, schedule: Q01DX Z (ip), vehicle: carboxymethylcellulose (CMC)): 139 % of control; T/C (T/C endpoint: mean survival time, dose: 90.0 mg/kg/injection, schedule: Q01DX Z (ip), vehicle: carboxymethylcellulose (CMC)): 121, 148 [4 of 6 alive], 159, 168 % of control; T/C (T/C endpoint: mean survival time, dose: 135.0 mg/kg/injection, schedule: Q01DX Z (ip), vehicle: carboxymethylcellulose (CMC)): 103, 112, 119, 165, 191, 201 % of control; T/C (T/C endpoint: mean survival time, dose: 200.0 mg/kg/injection, schedule: Q01DX Z (ip), vehicle: carboxymethylcellulose (CMC)): 137 % of control; survivor count (T/C endpoint: mean survival time, dose: 302.0 mg/kg/injection, schedule: Q01DX Z (ip), vehicle: carboxymethylcellulose (CMC)): 5 of 6; survivor count (T/C endpoint: mean survival time, dose: 450.0 mg/kg/injection, schedule: Q01DX Z (ip), vehicle: carboxymethylcellulose (CMC)): 6 of 6; survivor count (T/C endpoint: mean survival time, dose: 675.0 mg/kg/injection, schedule: Q01DX Z (ip), vehicle: carboxymethylcellulose (CMC)): 6 of 6

Q: CCC1CC2CN3CCc4c([nH]c5ccccc45)C(C(=O)OC)(C2)C13 (stereo not given) was tested. Which survivor count (T/C endpoint: mean survival time, dose: 300.0 mg/kg/injection, schedule: Q01DX001 (ip), vehicle: other) did it give?
A: Its survivor count is 0 of 6.

Q: CN(C)NCCN1CCN(CCCN2c3ccccc3Sc3ccc(C(F)(F)F)cc32)CC1 was tested. Which survivor count (T/C endpoint: mean survival time, dose: 50.0 mg/kg/injection, schedule: Q04DX003 (ip), vehicle: saline) did it give?
A: Its survivor count is 0 of 6.

Q: And the survivor count (T/C endpoint: mean survival time, dose: 100.0 mg/kg/injection, schedule: Q04DX003 (ip), vehicle: saline)?
A: The survivor count was 0 of 6.

Q: For CCCCn1nnc2ccc([N+](=O)[O-])cc2c1=O, which survivor count (T/C endpoint: mean survival time, dose: 400.0 mg/kg/injection, schedule: Q01DX009 (ip), vehicle: Klucel (hydroxypropylcellulose) (HPC)) is on record?
A: The survivor count was 0 of 6.

— PubChem BioAssay AID248 (DTP/NCI, 2004)
